Test results: the supplement of paper PMC12819154, “High-throughput peptide-centric local stability assay extends protein–ligand identification to membrane proteins, tissues and bacteria” (Nature Structural & Molecular Biology, 2025)
This is one part of the list. Small differences around the control level are noise.

By UniProt entry, the sequences of proteins in these tests, tags left out. Where a name states a change or a piece, a line headed by the entry shows the natural chain unless it says otherwise.
UniProt Q9H6E4: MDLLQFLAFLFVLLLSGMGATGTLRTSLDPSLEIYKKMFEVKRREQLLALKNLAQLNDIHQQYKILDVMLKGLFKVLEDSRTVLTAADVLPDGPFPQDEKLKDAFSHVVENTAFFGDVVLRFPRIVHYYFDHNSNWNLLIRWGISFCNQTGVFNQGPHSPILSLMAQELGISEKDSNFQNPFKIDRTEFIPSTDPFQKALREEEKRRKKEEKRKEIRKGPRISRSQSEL
UniProt Q9HAU5: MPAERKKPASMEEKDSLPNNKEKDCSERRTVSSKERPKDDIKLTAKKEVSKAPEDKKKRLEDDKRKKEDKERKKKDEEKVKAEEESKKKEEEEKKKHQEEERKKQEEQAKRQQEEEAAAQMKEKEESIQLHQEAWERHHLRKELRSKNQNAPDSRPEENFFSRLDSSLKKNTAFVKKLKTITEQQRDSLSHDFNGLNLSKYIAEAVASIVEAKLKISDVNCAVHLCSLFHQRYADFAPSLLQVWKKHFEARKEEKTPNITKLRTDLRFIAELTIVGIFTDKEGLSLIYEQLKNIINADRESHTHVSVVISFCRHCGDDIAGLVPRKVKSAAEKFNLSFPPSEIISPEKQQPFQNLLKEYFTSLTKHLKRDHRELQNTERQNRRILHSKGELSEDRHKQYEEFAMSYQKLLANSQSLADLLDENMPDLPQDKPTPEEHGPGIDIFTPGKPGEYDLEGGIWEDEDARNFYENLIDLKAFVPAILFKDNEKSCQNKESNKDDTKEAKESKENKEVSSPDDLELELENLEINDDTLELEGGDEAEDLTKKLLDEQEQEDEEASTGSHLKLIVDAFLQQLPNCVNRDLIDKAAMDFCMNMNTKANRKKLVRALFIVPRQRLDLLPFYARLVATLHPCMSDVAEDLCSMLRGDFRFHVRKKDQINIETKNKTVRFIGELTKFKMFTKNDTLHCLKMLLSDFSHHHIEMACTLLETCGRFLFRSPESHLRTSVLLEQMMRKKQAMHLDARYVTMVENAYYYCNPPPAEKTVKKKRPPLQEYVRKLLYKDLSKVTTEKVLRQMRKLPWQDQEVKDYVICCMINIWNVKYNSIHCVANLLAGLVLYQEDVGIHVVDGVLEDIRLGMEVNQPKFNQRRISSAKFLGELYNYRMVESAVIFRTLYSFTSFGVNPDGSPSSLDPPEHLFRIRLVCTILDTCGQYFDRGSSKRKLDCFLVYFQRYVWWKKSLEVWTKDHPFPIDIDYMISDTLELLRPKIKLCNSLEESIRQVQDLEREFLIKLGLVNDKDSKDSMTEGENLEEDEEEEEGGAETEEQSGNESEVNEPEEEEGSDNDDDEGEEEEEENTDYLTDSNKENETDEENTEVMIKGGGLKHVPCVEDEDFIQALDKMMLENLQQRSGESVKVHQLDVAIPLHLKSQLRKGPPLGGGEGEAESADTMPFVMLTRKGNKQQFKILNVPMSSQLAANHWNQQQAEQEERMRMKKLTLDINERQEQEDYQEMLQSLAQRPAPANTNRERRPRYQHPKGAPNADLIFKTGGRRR
UniProt Q9H7L9: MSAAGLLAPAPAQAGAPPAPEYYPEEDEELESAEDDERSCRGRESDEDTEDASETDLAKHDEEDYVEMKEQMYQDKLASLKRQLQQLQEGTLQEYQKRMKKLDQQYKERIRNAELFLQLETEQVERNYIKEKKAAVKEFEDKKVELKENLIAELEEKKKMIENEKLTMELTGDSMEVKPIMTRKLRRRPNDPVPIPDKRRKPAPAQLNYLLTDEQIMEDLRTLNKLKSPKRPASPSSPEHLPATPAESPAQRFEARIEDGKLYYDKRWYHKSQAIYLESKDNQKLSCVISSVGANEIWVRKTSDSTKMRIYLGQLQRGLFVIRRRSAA
UniProt Q9H3H3: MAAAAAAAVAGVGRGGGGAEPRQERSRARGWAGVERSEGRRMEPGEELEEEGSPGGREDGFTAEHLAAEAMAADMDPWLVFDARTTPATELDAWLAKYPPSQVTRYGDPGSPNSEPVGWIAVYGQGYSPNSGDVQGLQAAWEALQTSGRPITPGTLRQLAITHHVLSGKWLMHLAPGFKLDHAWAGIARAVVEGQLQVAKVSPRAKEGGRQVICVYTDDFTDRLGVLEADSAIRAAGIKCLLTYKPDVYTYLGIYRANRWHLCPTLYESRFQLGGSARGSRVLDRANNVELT
UniProt Q9H5N1: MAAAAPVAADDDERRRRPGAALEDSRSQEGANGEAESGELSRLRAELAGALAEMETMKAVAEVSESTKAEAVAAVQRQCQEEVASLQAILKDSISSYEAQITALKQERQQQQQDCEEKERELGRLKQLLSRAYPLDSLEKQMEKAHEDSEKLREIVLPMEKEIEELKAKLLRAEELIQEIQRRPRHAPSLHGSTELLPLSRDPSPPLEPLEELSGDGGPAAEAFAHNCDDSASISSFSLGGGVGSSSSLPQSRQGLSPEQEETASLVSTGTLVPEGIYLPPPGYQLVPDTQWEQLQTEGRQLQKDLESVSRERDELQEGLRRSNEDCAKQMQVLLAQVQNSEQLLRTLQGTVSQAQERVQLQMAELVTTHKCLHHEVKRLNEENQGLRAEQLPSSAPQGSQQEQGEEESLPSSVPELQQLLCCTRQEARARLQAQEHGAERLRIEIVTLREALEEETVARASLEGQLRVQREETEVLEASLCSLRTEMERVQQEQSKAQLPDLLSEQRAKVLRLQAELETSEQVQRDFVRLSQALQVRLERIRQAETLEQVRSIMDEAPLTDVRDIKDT
UniProt Q9H9R9: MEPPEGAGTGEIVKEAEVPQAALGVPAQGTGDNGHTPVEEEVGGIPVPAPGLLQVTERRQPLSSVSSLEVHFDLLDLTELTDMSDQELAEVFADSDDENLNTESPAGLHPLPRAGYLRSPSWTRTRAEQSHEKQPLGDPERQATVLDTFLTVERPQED
UniProt Q9H9Y4: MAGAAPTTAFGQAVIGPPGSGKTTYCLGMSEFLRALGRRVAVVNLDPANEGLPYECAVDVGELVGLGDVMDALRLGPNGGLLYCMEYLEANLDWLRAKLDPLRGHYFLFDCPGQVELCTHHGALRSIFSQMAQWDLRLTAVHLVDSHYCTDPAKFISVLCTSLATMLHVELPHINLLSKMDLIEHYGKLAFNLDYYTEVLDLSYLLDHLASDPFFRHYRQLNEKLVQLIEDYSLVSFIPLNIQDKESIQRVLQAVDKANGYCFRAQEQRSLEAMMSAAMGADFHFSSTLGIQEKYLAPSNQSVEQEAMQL
UniProt Q9H3U1: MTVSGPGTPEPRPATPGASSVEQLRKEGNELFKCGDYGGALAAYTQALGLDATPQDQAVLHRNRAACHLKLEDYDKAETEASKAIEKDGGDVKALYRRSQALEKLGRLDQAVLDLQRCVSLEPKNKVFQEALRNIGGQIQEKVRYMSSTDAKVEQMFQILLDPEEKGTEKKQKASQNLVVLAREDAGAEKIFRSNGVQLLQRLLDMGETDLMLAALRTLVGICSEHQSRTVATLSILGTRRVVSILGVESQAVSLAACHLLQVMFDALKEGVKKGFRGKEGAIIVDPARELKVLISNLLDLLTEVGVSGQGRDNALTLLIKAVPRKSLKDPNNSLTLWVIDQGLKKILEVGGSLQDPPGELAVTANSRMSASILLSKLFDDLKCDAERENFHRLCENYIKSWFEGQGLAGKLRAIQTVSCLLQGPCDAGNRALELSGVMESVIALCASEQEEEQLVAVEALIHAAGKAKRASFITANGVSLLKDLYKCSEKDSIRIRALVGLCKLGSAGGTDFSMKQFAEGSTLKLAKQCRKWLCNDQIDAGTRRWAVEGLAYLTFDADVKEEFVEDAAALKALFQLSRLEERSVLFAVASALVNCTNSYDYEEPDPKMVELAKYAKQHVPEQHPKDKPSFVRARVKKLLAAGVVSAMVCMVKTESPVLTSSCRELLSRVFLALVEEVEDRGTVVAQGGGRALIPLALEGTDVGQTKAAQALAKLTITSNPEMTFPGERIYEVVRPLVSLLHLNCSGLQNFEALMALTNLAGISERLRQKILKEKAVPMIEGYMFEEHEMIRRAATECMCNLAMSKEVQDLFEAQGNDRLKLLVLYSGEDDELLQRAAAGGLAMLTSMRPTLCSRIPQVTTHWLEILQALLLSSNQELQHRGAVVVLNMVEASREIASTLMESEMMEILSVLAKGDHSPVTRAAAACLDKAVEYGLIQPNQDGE
UniProt Q9HBZ2, whole entry: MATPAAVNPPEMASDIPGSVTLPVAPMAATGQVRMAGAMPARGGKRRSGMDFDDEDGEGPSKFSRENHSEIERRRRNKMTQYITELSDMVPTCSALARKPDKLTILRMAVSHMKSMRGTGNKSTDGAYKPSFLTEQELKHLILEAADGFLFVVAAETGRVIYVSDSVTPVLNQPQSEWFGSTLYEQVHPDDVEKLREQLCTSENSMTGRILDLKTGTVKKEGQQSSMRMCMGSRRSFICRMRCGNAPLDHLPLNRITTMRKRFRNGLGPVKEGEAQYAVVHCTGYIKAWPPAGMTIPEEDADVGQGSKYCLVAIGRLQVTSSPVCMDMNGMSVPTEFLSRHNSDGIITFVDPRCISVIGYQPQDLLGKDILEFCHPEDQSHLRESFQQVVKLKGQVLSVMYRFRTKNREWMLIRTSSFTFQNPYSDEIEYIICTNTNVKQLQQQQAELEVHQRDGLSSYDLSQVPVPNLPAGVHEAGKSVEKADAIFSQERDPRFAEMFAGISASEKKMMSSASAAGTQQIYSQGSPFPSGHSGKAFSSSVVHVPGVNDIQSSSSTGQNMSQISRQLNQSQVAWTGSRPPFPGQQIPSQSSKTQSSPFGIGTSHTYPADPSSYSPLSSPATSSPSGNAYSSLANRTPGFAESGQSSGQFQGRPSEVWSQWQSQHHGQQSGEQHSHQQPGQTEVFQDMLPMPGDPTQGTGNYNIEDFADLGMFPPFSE
UniProt Q9H1Y0: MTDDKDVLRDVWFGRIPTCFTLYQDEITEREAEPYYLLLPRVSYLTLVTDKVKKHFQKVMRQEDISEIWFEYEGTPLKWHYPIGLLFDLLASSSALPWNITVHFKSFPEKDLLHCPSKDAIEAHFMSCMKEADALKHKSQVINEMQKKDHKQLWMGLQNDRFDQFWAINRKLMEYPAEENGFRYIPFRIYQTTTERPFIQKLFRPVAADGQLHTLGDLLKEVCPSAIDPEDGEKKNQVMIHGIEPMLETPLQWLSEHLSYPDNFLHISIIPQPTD

Each target was assayed with Cc1nc(Nc2ncc(C(=O)Nc3c(C)cccc3Cl)s2)cc(N2CCN(CCO)CC2)n1 [dasatinib] (assay: log2 fold change of tryptic peptide abundance, ligand vs vehicle (limited proteolysis) (log2 ratio); higher = more trypsin-susceptible (destabilized)). Settings: ligand concentration: 5 uM; sample: K562 cleared lysate.
Work on “CCDC134 (peptide sequence: ALREEEKR, peptide start residue: 199) (UniProt Q9H6E4)” yielded a log2 fold change of 0.611.
Target “UPF2 (peptide sequence: AFVPAILFK, peptide start residue: 476) (UniProt Q9HAU5)” has a log2 fold change of -0.26.
For “SUDS3 (peptide sequence: RKPAPAQLNYLLTDEQIMEDLR, peptide start residue: 200) (UniProt Q9H7L9)”, the log2 fold change was -0.0793.
“C11orf68 (peptide sequence: RMEPGEELEEEGSPGGR, peptide start residue: 41) (UniProt Q9H3H3)” showed a log2 fold change of 0.0703.
For “RABEP2 (peptide sequence: AQLPDLLSEQR, peptide start residue: 498) (UniProt Q9H5N1)”, the log2 fold change was 0.227.
“DBNDD1 (peptide sequence: AEQSHEKQPLGDPER, peptide start residue: 127) (UniProt Q9H9R9)” showed a log2 fold change of 0.059.
Target “GPN2 (peptide sequence: LTAVHLVDSHYCTDPAK, peptide start residue: 138) (UniProt Q9H9Y4)” has a log2 fold change of 0.348.
In the case of “UNC45A (peptide sequence: LDQAVLDLQR, peptide start residue: 108) (UniProt Q9H3U1)”, the log2 fold change is reported as 0.0744.
Target “UniProt Q9HBZ2 (peptide sequence: ENHSEIER, peptide start residue: 92)” has a log2 fold change of -0.0842.
Work on “ATG5 (peptide sequence: IYQTTTERPFIQK, peptide start residue: 189) (UniProt Q9H1Y0)” yielded a log2 fold change of -0.322.
